Laboratory results taken from patent US20130288980A1, “TARGETING SENESCENT AND CANCER CELLS FOR SELECTIVE KILLING BY INTERFERENCE WITH FOXO4” (Buck Institute for Research on Aging, priority 2012, published 2013).
At least one structure is not confirmed: it was looked up by name or label, or the drawing left a doubt.

Test system: A375 melanoma cells
Experiment: A375 colony assay with Trametinib (shGFP versus shFOXO4)
Assay type: cell-based, human
Settings: one week

Question: For `CC(=O)Nc1cccc(-n2c(=O)n(C3CC3)c(=O)c3c(Nc4ccc(I)cc4F)n(C)c(=O)c(C)c32)c1` [Trametinib], which colony forming potential (FOXO4-depleted (shFOXO4) A375, concentrations as low as 80 nM) is on record?
Answer: near-complete loss of colony forming potential

Question: And the colony forming potential (FOXO4-expressing (shGFP) A375, 80 nM)?
Answer: not
